According to PMC3271320:
Results are given in words; binding and its absence hold for the method and conditions named. In cells and extracts the contact can be indirect. Some entries that bind do so weakly or less than the wild type.

Amino acid sequences for entries named in this document (tags omitted).
UniProt P19525: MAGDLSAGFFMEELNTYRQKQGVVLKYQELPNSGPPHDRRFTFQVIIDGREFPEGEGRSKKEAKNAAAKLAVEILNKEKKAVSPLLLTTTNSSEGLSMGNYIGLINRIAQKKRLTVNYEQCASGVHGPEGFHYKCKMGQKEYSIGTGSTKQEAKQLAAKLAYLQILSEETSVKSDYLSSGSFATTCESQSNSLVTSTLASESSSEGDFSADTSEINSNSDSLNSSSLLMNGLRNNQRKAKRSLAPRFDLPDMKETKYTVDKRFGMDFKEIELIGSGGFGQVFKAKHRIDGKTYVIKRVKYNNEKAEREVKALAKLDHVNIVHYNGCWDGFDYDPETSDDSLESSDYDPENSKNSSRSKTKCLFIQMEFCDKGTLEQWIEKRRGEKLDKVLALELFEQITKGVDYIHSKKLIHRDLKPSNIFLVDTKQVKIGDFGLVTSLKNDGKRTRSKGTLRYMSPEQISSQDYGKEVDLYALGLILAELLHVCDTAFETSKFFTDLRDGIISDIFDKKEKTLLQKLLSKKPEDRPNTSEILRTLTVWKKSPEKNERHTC
UniProt P40763: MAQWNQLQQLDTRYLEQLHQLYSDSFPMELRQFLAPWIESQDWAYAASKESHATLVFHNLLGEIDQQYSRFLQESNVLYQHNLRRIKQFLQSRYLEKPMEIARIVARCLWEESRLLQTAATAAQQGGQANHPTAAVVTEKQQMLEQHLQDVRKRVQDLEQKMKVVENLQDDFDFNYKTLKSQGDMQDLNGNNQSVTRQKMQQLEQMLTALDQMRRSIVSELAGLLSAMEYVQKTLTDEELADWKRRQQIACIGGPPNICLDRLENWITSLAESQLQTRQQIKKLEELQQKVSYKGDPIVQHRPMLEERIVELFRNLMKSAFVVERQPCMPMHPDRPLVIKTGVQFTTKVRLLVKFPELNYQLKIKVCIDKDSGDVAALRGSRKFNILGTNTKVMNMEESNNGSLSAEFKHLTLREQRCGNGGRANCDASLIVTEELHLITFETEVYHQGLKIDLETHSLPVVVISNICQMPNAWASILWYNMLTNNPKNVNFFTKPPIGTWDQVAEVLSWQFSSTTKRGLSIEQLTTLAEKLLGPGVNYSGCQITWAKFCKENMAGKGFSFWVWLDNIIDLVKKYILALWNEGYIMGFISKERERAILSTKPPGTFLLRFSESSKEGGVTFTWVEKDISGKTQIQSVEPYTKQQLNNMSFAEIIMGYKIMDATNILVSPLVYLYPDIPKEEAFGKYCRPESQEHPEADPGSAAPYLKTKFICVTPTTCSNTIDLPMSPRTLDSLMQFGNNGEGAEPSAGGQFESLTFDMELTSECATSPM

Target: GST-PKR 1-551 aa (full-length PKR) (UniProt P19525)
Assay: pull-down; 1 µg GST fusion on glutathione-sepharose beads incubated with 120 µg cell protein extract (Huh-7 or replicon cells, with or without IFN-alpha) in 200 µl HNGT (20 mmol/L HEPES pH 7.9, 150 mmol/L NaCl, 10% glycerol, 0.1% Triton X-100) overnight at 4 °C; blot with anti-STAT3 or anti-p-STAT3; only the target purified

| Substance | binding |
| --- | --- |
| phosphorylated-STAT3 (p-STAT3) (from UniProt P40763 1-770) | binds |
| signal transducer and activator of transcription 3 (STAT3) (from UniProt P40763 1-770) | binds |
